In the supplement of paper PMC3334620:
Over roughly 33,000 sequences, “E-score (-0.5 to 0.5)” has its median near -0.016; the highest 2% begin near 0.3. This is one part of the list.

Molecular target: T1, Yer184c (UniProt P39961)
T1 sequence: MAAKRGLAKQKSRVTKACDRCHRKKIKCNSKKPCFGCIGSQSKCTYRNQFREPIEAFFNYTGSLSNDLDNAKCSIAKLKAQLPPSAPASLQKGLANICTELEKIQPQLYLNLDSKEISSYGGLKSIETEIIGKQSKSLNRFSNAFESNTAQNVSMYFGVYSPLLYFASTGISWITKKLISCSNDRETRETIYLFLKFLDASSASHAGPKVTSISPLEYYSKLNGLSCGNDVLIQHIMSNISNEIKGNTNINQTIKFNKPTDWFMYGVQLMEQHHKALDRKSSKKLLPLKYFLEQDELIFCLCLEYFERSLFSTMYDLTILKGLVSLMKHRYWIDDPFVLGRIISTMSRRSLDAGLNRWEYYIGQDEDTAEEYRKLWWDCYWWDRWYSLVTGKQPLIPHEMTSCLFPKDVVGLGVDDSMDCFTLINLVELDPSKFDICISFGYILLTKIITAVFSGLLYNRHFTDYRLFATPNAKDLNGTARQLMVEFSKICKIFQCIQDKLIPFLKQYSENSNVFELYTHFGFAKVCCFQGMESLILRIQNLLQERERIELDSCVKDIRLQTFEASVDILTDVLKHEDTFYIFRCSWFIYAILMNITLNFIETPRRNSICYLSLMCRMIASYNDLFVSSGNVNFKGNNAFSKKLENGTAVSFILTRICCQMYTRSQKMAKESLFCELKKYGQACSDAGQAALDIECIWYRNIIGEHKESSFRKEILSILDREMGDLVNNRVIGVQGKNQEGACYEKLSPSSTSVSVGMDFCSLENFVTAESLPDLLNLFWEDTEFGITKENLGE
Assay: PBM E-score (8-mer binding enrichment) (E-score (-0.5 to 0.5)); higher = stronger / more preferred TF binding
Conditions: protein concentration: 100 nM; construct: GST-full length
Procedure, shortened: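 Using PURExpress in vitro transcription/translation, GST-tagged yeast transcription factors were made in full-length or DNA-binding-domain form. These were applied at about 100-200 nM to double-stranded universal all-10-mer Agilent arrays, and bound protein was detected with fluorescent anti-GST. Scans were normalised with masliner before the Universal PBM Analysis Suite assigned E-scores to ungapped eight-base words pooled with their reverse complements.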

Sequence	PBM E-score
AATCGTGT	0.0587
AAGCACAT	0.1
CTTTCCAA	0.143
AACTCGGA	0.17
AGACGTCA	-0.202
CCGTATCC	0.204
CATGTGCC	-0.14
GTCCCGTA	0.0111
ATCCACGG	0.0634
CACACTAC	-0.0799
AATTTAAC	0.281
AGTTTGTG	-0.0244
CTCATGAA	-0.0125
ATAAACAA	0.251
CTCCTTCA	-0.0688
CAGGGGCA	-0.101
AGGGATAT	-0.146
GTCAAACA	-0.0565
CCCATGGC	-0.218
AATTTGCA	0.002
GCGTAACA	-0.0793
GTAAGGAA	-0.0396
CGAGCGAG	0.222
ACCCCGTG	-0.0536
CGTAATAC	0.168

Reprinted from the listing for reference:
Sequence	PBM E-score
AACTCGGA	0.17
AGACGTCA	-0.202

(next part)

Sequence	PBM E-score
CCGCTGGA	0.128
ATTATTCG	0.285
GTAGCATA	-0.0285
TTAAAAAA	0.262
AAACCTGT	-0.0534
ACTAGCAT	-0.028
ACATATTC	0.118
CAGACGGA	0.105
CGCATACC	0.0853
AAGGCATG	-0.049
AGGCGTAA	-0.0633
ACCTGCAT	0.0901
CTAATAAG	-0.0319
ATCCTCAT	-0.192
AGGCAGTC	-0.192
GGTCCGCA	0.151
CCTTCTCC	-0.0669
CCAACGTC	-0.211
CTCAATTA	0.00936
AACGAAGC	-0.133
CGACACGA	0.0191
AACTTGCG	0.0943
ATCAGACA	0.0525
CTAGTTAC	0.113
AAGGATTA	-0.0352

Fetched one by one from the entries so far (four):
Sequence	PBM E-score
CCTTCTCC	-0.0669
TTAAAAAA	0.262
ACATATTC	0.118
ATAAACAA	0.251

Additional records follow:

Sequence	PBM E-score
GTACATTA	0.0622
AGGTTGAC	-0.17
AAAGTTTC	0.0916
CAGGTGAG	-0.288
GGCAATGA	0.0156
GAGTCGCA	-0.295
CACGCTGG	-0.172
CAAGTACA	-0.0692
CTGACTTC	0.102
GGCCCCAC	-0.332
AGCAACCG	0.0619
CATCAGGG	-0.242
GGTGATTA	0.0797
AACGGGCT	-0.125
ACCCTCCA	-0.283
CCGATCCA	0.0278
AATCGGCC	0.146
GAGTACAA	0.114
ATAGTGAA	0.144
CCCGAGCA	-0.148
CGGACAAC	0.373
CCAAGTGC	-0.253
GACCCGGA	0.212
GACATGGC	-0.26
CATACCCG	-0.0295

Sequence	PBM E-score
GGAATCAA	0.157
ACACGCCC	-0.338
GACCGGCA	0.173
GTGATGAA	-0.162
ACCTACAC	-0.309
TCCCAAGA	0.0686
GTAATGCA	-0.157
CGAACGGA	0.283
CACATGAC	-0.224
AATAATGT	0.105
AAAAGCTG	-0.123
ACAAACAT	0.0706
GTAACGCA	0.0964
CCAGAGTC	-0.0661
ATTCAGTA	0.13
ACACGGGT	-0.0189
ATGTCTTA	-0.229
CCAGCTAA	-0.204
GGGTAACC	-0.248
AAATATTC	0.139
CGAGTAAA	0.202
CCCTTGGC	-0.255
GTCTGGGA	-0.178
AAATAGAA	0.0485
CGCGTTTC	-0.0961

Sequence	PBM E-score
GATATTAC	0.244
AGCGGTGC	-0.168
CATGCAGA	-0.0557
CTAGGCTA	-0.242
AGCGGCAC	-0.0845
AATCGTAT	0.039
AGGTGTAG	-0.344
GGCCGAGA	0.348
TGCTGGAA	0.14
ACCTTGCC	-0.126
ACGCCAAC	-0.0437
CAACACAG	0.00627
GGCGTTGA	-0.0369
GTTACTGA	0.264
AGAACACG	-0.081
AACGCGTA	-0.0115
CGATTTAG	0.143
GGCACTAC	-0.144
AAGTCGGT	0.0483
GCGCTAAA	0.0325
GTTCGTTA	0.235
CGGTTGAG	0.197
GAGTCGCC	-0.197
ATGTGCGG	-0.0481
ACTATTCC	0.249

Sequence	PBM E-score
GGTACTGA	-0.155
CAGTATTA	0.128
ACGAGAAT	0.0622
AATTGACC	0.0441
CGCACTAG	-0.117
CTATCCCC	-0.235
CGCTCTAG	-0.29
CAGGACGA	-0.183
AGGTTCCC	-0.239
AAACTGCA	-0.0586
AAGTAGGG	-0.0731
CAACCTAC	-0.0667
AACTTTTC	0.0211
AGGGCCGG	0.212
AACTGGGC	-0.189
AACATCCC	0.141
GGGACGCA	-0.0959
AGTAACCA	-0.0255
AACCACTC	-0.108
CGAGCGAC	-0.0115
AAGCATCT	-0.148
CCCTATCA	-0.147
ACAATTGT	0.097
ACCTATGA	-0.155
ACCGGAAG	0.279

Exported bar-delimited: part of the list above
Sequence | PBM E-score
TCCCAAGA | 0.0686
GTAATGCA | -0.157
CGAACGGA | 0.283

Carrying on:

Sequence	PBM E-score
AGAGCTAT	-0.157
CATCCCTA	-0.083
CCTACTGC	-0.15
GTCTACAC	-0.0815
AACTAACA	0.155
AATATCCG	0.352
GTCAGTAA	0.00655
ATTAGCCA	-0.141
CCGGGGAC	0.00683
GTCTATCA	0.0292
ACAGGAAA	0.257
ACCTCGAA	0.111
ACATGATA	0.202
AAGGTGTG	-0.171
GGGCTTAC	-0.0659
CCCCTCAA	-0.226
ACAGGGCT	-0.338
GTACCCCA	-0.155
CTACGTCC	-0.178
ACATTACC	0.0271
ACGTAGCC	-0.247
ATTTAAGA	0.0141
CCCGTGGC	-0.103
GCCACCTA	-0.245
AATCCAAA	0.0888

Sequence	PBM E-score
GTGCAGCA	-0.0661
CATGGGCA	-0.0913
AATTCACG	0.0096
GCTGTTCA	0.111
ACAGAATA	0.0927
GAATACAC	-0.0036
GCAAGTGA	-0.117
TAGGACAA	-0.0352
AGGTTACA	-0.077
ACTGGCGA	-0.381
CACTACCC	-0.135
ACGACATC	-0.079
AATGGAAG	0.00111
CTGCCGAA	0.297
ACACCGAG	0.148
CCTGGAAG	-0.251
CAGGATCG	-0.0543
AAAGAGAG	-0.165
CCCGGAAA	0.396
ACTAGCGC	-0.159
ACTAATCA	0.0915
CAATTTCG	0.0214
TCATATCA	0.0786
CCATCCAC	-0.19
AACTGATC	-0.0867

Sequence	PBM E-score
CCGCAACG	0.226
ATTATCAA	0.182
ATAGGGTG	-0.214
GTTGGATA	0.0184
AGTCATCC	-0.0833
CATAAGGA	-0.0735
GCGCGTAC	-0.00653
CAGCCCGG	0.299
ACTCTTGG	-0.186
CTCCGACA	0.121
CCCATCGG	0.137
AGGCTCTA	-0.242
TCAAGAGA	0.0301
ATCGCTCC	-0.0866
AAGCCTTG	-0.165
ACGTAAGT	-0.14
CCTATCCA	-0.177
CCGGAGCC	0.289
GCCTGGCC	-0.12
ATACGATA	0.0832
ACCTTGAA	-0.136
GACTATGC	-0.0813
ACTATGAC	-0.147
ATTTGTCG	0.161
AAATTACG	0.0604

Sequence	PBM E-score
ACGAACTG	-0.0655
AGGGATGC	-0.459
CAAGAGGG	-0.272
ACCACCCG	-0.0892
AACGTATG	-0.184
AGGAGTTA	-0.0333
TACGGGAA	0.142
CGGGAGAA	0.117
ACCTAGTC	-0.244
AGGGCTAT	-0.414
CCTCATGA	-0.0304
TCACATCA	0.00032
GACCACCC	-0.312
ATCCGTTG	0.265
TACACGAA	0.229
ATGGATGA	-0.109
AAAACCGA	0.169
AGCAGGGA	-0.124
ATTAATCA	0.164
TCATGACA	0.135
GAACGACC	-0.218
CCTGAAGA	0.0305
TCCCGTCA	-0.002
CTCCACAG	-0.298
AATCGAGG	0.119

Sequence	PBM E-score
AATGTCTG	0.0283
CGCGATGA	0.0277
AATAGAGT	-0.116
CAAGTGAG	-0.182
CAATGTAA	0.174
TAAAACGA	-0.00919
ACAACCAG	0.103
ATGTACCC	-0.114
CTACACGA	0.112
AAACATCC	0.261
ATGGCAAA	0.0966
AACATGAG	-0.0128
CGCATGAA	0.0183
AGAAGAAC	-0.0703
AATGTATC	0.149
CACACACA	0.0185
AGGCACAT	-0.0764
GCGTCGAA	0.0873
CCTGCGAA	-0.0657
CAGCAGAA	0.0921
CCCATCCC	-0.229
CTAACTAG	0.134
TGTGGTAA	0.137
AGTCACAT	0.0228
CTCACAAC	0.108

Sequence	PBM E-score
TAATCGGA	0.248
ATCCTCGA	0.02
CGTTAAGA	-0.042
ACGGAAAA	0.309
CGCGAGAG	-0.0648
AACCGGAC	0.212
ATGGTCAC	-0.114
AGGCAGTG	-0.184
ACCTCTCG	-0.261
ATGTAGCG	-0.243
ATAGAGGA	-0.115
AGGCCGCC	-0.175
GAGATCCC	-0.018
ACCGGCCA	0.173
AATGGATC	-0.0164
GAGATAAA	0.173
ACCTCAGA	-0.237
TGCTTCAA	0.0483
ACATTCCA	-0.024
ATCCCAGA	-0.127
CCACAGAG	-0.188
CCAAAACA	-0.0949
TCTATGAA	0.112
ACCTGCCA	-0.137
GGCTGCAA	0.0741

Sequence	PBM E-score
AGTCCATG	-0.198
ACCTGAAC	-0.0787
GCTGATCC	-0.0722
AAAATATC	0.244
AGAATAAC	-0.0322
CGGTACAA	0.197
AAGATGGG	-0.0355
CGTTCTAA	0.153
GCCGTCGA	0.00267
TCACCCAA	-0.0225
CAACCACC	0.0101
ATGGAGGG	-0.291
ATTGCCGC	0.162
GGCTCCCA	-0.124
AAACAACG	0.0792
AGGCCTTG	-0.258
GAGGTCGA	-0.158
GTGGATAA	0.0514
AGAAGCCT	0.00531
CGGTAGAG	-0.0325
CGGCCCGC	0.192
AGGCTGGC	-0.313
CGCCAACC	-0.0638
GGTAGAAA	0.0816
GCATCTCC	-0.155

Sequence	PBM E-score
ACACTCTC	0.0613
AGCGAAAC	0.215
CCGCCACA	-0.289
CTTTTTCC	0.198
AGATATAT	0.26
AACAACCT	-0.0961
AGGGTATC	-0.0357
AACACGTC	-0.0885
AATACTTG	0.034
CACGCAGC	-0.152
ATAGATCG	0.0323
AGTACGTC	-0.104
CAAGTTAG	0.0439
CTCTAAAA	0.0513
GCAGCTAC	0.108
AAGATTTA	0.101
CCCATGCG	-0.259
TATATCAA	0.248
CGCCTAAA	-0.0442
